Only a part is listed here, and it is no random draw. At the low end of the ranking the order means little.

Protein sequences, listed by entry. Tags and fused reporters are not part of them. Lines headed by an entry give the natural chain unless they say otherwise; changes in a name come on top.
UniProt Q9Y603: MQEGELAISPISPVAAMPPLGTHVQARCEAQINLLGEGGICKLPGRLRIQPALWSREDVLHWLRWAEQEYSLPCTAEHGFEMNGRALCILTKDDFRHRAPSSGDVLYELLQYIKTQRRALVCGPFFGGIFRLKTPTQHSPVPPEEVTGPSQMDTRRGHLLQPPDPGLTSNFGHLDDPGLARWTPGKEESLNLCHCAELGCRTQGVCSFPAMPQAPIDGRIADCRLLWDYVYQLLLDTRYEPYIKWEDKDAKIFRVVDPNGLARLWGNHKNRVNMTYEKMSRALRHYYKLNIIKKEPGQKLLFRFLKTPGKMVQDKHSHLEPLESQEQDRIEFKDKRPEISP

For this assay, the target named is ETV7 (UniProt Q9Y603). Nature of the assay: DAPPL (digital affinity profiling via proximity ligation, sequencing). Conditions: 10 mM Tris-HCl pH 7.5, 50 mM NaCl, 1 mM DTT, 4% glycerol, room temperature, 30 min; GST-TFs on glutathione beads, 16-mer random dsDNA library, 0.1% …; high values mean tight binding; double strand, one strand shown; scale: fold enrichment (6-mer frequency, TF over GST control).
Sequence CCTCGT showed a binding signal of 1.17.
With AATAGC, the binding signal was determined as 1.19.
The figure for TAACCC is 1.31; for GGATCC it is 0.907.
In the case of TAGTAC it was 1.17; in that of TAACAC, 1.21; in that of CGACTT, 1.53.
The figure for GTTTAC is 1.22; for GCCTTC it is 1.47; for TGCTCT it is 1.24.
As to TGCCCG, the binding signal came to 1.34.
In the case of ACCGAA it was 0.968; in that of TGGTCT, 1.28; in that of TATCTA, 1.26.
In the case of CCCTAA it was 1.14.
In the case of GCTCAG it was 0.952; in that of CGGATA, 1.09.
With CACACT, the binding signal turned out to be 1.14.
TACGTA came in with a binding signal of 1.15.
The figure for TGTCTC is 1.16.
In the case of ACTTTC it was 1.51.
The figure for CTCTGC is 1.27; for CACGAA it is 1.16.
CGGCTC displayed a binding signal of 1.25.
The figure for TATAGT is 1.2; for TCGCTC it is 1.02.
The figure for AATAAG is 1.19.
The figure for AACAGC is 1.21; for GAAATG it is 1.6; for CTCACT it is 1.56.
As to CCTTGG, the binding signal came to 1.22.
The figure for GTTCTA is 1.2; for AACAAT it is 1.24.
The sequence AAGCAG yielded a binding signal of 1.14.
The figure for GGAACA is 1.03; for AATGCA it is 1.3.
As for ATACAA, the binding signal amounted to 1.14.
The sequence CGAAAG had a binding signal of 1.19.
In the case of TTCCGT it was 1.6.
